This note sets out measurements from paper PMC11775196.

The chains behind the UniProt entries cited, without tags or fusion partners.
UniProt Q12857: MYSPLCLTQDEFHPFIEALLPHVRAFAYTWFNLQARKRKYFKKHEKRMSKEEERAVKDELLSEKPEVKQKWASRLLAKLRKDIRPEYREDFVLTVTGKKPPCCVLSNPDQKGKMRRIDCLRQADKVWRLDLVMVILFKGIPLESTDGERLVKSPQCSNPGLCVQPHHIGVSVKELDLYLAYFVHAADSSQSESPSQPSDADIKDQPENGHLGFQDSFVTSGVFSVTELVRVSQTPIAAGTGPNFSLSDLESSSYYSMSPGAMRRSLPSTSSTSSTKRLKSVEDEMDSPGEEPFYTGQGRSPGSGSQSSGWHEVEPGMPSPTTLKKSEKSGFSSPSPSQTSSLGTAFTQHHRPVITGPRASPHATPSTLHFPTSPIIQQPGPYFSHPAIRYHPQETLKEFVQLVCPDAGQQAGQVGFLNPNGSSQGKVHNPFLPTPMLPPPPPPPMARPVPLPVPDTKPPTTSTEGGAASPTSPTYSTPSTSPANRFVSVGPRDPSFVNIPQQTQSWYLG
UniProt P08651: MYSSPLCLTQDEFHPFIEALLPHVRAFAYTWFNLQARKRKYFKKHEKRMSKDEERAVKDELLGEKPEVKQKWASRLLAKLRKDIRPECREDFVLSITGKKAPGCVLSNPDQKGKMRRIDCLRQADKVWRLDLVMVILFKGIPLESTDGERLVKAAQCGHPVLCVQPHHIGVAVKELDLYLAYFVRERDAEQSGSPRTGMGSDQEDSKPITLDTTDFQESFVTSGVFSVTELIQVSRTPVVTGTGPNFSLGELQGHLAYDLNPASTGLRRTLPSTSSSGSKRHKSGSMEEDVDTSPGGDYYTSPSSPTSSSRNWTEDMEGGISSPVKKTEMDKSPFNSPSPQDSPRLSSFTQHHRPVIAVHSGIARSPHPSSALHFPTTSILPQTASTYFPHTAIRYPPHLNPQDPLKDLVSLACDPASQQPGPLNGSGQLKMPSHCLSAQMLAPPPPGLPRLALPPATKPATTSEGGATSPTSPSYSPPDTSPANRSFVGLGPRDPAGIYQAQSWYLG
UniProt Q6W2J9: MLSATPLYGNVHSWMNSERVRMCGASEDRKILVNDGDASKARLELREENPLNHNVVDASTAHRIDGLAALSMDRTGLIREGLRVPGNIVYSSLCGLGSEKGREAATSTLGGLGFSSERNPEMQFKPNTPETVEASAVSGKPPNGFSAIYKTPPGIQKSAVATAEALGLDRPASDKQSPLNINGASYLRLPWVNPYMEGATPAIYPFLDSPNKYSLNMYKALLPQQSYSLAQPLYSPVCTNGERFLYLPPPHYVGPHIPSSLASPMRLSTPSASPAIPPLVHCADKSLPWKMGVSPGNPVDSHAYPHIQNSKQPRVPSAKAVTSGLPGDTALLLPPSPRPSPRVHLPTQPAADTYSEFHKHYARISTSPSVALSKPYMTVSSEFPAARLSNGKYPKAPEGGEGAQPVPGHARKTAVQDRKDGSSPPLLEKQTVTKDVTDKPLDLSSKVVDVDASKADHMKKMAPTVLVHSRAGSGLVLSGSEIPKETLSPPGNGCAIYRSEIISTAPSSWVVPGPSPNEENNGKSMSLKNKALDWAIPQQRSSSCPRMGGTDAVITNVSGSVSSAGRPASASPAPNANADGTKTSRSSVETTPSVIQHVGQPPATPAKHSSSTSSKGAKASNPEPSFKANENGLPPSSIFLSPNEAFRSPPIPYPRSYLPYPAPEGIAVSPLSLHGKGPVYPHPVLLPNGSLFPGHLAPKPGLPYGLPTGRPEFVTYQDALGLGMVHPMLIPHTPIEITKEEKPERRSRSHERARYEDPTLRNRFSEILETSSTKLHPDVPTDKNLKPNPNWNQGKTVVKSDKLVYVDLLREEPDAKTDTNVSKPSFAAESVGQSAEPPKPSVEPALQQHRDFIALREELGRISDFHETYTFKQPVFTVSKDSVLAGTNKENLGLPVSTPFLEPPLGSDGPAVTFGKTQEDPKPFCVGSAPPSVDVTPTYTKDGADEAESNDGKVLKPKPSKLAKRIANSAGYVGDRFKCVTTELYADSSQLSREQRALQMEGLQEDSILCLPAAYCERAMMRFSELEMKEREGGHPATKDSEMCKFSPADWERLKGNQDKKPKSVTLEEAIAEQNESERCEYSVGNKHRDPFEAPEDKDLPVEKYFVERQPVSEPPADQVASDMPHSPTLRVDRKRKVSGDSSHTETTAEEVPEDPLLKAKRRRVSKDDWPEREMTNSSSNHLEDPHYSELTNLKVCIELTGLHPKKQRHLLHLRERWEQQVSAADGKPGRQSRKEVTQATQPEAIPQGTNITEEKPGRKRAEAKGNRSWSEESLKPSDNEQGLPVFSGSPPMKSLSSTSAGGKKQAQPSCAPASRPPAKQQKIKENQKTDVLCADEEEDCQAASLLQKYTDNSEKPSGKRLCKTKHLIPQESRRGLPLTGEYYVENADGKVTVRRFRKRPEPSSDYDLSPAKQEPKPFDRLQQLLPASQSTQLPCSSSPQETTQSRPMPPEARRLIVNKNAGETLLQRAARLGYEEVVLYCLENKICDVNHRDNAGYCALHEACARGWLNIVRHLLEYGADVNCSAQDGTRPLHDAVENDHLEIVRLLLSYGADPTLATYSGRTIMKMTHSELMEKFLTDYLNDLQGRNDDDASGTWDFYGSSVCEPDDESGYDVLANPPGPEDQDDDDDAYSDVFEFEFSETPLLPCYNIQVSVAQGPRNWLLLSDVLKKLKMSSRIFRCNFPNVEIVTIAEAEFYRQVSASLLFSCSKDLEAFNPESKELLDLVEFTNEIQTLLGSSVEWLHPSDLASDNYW
UniProt Q9BQE9: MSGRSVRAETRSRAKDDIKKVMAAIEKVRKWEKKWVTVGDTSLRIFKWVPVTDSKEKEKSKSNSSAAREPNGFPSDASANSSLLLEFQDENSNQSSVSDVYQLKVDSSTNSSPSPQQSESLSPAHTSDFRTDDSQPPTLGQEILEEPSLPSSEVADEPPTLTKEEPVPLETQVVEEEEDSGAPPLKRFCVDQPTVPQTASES
UniProt Q86UP3: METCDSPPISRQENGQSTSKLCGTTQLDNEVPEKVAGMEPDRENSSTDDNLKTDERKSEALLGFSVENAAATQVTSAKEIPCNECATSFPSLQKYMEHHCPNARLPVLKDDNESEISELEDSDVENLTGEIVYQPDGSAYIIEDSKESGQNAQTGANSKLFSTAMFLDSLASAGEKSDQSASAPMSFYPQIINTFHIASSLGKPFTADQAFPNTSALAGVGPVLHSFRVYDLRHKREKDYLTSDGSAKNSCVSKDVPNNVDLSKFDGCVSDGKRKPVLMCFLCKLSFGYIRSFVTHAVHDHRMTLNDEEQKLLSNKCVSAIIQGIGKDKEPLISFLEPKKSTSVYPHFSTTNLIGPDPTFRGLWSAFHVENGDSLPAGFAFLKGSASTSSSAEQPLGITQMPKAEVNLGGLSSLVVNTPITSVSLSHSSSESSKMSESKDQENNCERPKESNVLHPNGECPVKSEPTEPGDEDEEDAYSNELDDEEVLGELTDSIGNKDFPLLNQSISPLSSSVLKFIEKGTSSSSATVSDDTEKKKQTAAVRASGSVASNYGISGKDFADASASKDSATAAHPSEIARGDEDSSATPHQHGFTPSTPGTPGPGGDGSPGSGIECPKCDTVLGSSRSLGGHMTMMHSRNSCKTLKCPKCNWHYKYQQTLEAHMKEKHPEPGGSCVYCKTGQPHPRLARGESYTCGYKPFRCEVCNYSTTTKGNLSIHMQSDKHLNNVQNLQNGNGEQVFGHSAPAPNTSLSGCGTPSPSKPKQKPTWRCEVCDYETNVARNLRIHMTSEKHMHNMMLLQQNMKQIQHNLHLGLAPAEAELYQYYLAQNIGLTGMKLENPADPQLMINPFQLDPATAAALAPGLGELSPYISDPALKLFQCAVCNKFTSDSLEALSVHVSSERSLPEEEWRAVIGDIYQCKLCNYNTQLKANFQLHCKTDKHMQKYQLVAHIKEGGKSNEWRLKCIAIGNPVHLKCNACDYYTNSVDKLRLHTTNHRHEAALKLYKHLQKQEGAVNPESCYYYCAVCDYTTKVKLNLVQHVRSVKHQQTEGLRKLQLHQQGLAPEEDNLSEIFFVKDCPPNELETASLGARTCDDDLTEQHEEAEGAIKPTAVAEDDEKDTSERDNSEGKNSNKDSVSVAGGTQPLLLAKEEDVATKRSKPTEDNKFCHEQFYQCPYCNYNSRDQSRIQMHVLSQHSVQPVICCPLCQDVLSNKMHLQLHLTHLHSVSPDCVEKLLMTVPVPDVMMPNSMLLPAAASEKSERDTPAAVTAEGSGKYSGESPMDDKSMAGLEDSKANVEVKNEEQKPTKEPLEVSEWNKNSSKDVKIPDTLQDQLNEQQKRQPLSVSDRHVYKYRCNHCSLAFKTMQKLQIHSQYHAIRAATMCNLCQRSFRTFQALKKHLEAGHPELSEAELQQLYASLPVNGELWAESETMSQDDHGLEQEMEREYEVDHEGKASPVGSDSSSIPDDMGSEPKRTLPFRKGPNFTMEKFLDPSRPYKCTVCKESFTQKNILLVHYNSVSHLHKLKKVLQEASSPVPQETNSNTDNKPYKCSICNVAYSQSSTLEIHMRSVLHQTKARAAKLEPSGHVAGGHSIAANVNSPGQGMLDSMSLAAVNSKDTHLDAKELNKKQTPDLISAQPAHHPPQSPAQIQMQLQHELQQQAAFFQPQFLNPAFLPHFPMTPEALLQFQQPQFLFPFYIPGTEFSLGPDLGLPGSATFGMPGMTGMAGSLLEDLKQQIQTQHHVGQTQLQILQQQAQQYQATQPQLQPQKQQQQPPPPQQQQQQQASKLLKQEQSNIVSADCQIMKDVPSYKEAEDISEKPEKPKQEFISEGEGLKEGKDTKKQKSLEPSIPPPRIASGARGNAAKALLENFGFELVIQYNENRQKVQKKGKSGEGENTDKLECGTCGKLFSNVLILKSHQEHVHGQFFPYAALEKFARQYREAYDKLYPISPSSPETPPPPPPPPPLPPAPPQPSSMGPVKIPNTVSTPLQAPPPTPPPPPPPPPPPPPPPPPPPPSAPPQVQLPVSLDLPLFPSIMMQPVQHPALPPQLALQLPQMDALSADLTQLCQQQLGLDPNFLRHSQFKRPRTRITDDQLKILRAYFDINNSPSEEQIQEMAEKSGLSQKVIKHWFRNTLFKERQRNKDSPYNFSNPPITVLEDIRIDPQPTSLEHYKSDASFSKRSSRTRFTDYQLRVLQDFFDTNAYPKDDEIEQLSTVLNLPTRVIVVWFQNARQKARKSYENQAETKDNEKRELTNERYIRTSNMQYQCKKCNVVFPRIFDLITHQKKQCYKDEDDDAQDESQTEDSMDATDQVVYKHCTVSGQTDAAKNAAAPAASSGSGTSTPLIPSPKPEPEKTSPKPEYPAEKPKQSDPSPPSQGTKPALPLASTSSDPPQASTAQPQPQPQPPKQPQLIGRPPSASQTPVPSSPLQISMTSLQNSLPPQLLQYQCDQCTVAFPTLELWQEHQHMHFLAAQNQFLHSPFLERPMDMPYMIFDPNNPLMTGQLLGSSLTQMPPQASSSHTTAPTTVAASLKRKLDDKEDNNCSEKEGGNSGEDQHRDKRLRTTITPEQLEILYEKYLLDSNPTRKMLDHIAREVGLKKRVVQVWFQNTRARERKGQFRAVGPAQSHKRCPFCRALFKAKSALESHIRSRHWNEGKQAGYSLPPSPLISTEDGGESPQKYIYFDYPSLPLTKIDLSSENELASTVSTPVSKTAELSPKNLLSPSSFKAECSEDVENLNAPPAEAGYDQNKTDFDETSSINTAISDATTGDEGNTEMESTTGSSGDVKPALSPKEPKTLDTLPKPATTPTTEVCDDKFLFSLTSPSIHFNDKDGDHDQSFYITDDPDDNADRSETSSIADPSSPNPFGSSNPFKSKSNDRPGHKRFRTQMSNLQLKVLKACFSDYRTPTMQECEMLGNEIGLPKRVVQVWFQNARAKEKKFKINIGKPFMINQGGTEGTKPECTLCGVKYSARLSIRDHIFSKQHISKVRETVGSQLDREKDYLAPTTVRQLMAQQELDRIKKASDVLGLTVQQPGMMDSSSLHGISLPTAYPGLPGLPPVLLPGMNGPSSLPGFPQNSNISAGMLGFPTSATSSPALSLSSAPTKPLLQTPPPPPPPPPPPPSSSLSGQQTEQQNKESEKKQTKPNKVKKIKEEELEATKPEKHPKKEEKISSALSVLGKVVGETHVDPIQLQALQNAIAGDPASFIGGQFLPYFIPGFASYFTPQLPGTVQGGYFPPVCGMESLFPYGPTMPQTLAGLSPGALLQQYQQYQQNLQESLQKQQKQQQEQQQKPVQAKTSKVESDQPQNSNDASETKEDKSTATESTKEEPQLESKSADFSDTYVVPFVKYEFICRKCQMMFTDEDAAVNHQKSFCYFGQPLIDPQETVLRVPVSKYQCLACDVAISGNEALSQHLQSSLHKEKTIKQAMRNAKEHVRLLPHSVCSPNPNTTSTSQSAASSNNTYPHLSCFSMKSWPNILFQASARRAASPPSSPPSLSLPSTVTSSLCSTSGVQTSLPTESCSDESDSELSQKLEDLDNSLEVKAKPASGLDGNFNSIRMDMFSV

Test [1] addresses MAC3-N-tagged NFIA (human) (UniProt Q12857). Nature of the test: proximity labelling; BioID with UltraID (MAC3-tag) on NFI baits in Flp-In T-REx 293 cells, 50 uM biotin for 16 h; lysis with 0.1% SDS and benzonase; Strep-Tactin beads; HCIs at SAINT BFDR <=0.01 against MAC3-N-tagged GFP.
The target in test [2] is MAC3-N-tagged NFIB (human) (UniProt O00712). The test is described as above.
In test [3] the target is MAC3-N-tagged NFIC (human) (UniProt P08651). Described as above.
Test [4] concerns the target MAC3-N-tagged NFIA (human) (UniProt Q12857). Nature of the test: affinity purification with mass spectrometry; MAC3-N-tagged NFI baits in Flp-In T-REx 293 cells induced with 2 ug/ml tetracycline for 24 h; lysis in 50 mM HEPES pH 8.0, 5 mM EDTA, 150 mM NaCl, 50 mM NaF, 0.5% NP40; capture on Strep-Tactin beads, elution with biotin; HCIs at SAINT BFDR <=0.05 against MAC3-N-tagged GFP.

No constants are given. Whether binding was seen depends on the method and setting. Binding seen in cells or lysates may run through a third protein. These calls come from enrichment with a bait or labelling near it, and not all partners need be listed.

For the molecule BCOR (from UniProt Q6W2J9 1-1755), the binding entry in test [1], in test [2] and in test [3] was “binds” in each case.

For the molecule SMARCD1 (from UniProt Q96GM5 1-515), in test [4], the binding result is recorded as “binds”.

In the case of CIC (from UniProt Q96RK0 1-2517), the binding entry in test [1], in test [2] and in test [3] was “binds” throughout.

Regarding BCL7B (from UniProt Q9BQE9 1-202), the binding entry in test [2] is “binds”.

As to CREBBP (from UniProt Q92793 1-2442), the binding entry in test [1], in test [2] and in test [3] was “binds” in each case.

As to CDK5 (from UniProt Q00535 1-292), the binding entry in test [2] was “binds”.

With ZDHHC17 (from UniProt Q8IUH5 1-632), the binding entry in test [1] is recorded as “binds”.

Consider MGA (from UniProt Q8IWI9 1-3065), for which the binding entry in test [1], in test [2] and in test [3] was “binds” in each case.

With NCOR1 (from UniProt O75376 1-2440), the binding result in test [1], in test [2] and in test [3] was “binds” throughout.

For the molecule PRR12 (from UniProt Q9ULL5 1-2036), the binding result in test [1], in test [2] and in test [3] was “binds” each time.

For KLF4 (from UniProt O43474 1-513), the binding entry in test [1] is “binds”.

On to JMJD1C (from UniProt Q15652 1-2540), for which the binding result in test [1], in test [2] and in test [3] was “binds” in each case.

Consider SMARCA4 (from UniProt P51532 1-1647), for which the binding result in test [1], in test [2], in test [3] and in test [4] was “binds” each time.

TLE3 (from UniProt Q04726 1-772): the binding result in test [1], in test [2] and in test [3] was “binds” in each case.

As for ZFHX4 (from UniProt Q86UP3 1-3567), the binding result in test [1], in test [2] and in test [3] was “binds” in each case.

For SMARCC2 (from UniProt Q8TAQ2 1-1214), the binding entry in test [1], in test [2], in test [3] and in test [4] was “binds” throughout.

With MAML2 (from UniProt Q8IZL2 1-1156), the binding result in test [1] is on record as “binds”.

B1: HNRNPM (protein, UniProt P52272 1-730)
chain: MAAGVEAAAEVAATEIKMEEESGAPGVPSGNGAPGPKGEGERPAQNEKRKEKNIKRGGNRFEPYANPTKRYRAFITNIPFDVKWQSLKDLVKEKVGEVTYVELLMDAEGKSRGCAVVEFKMEESMKKAAEVLNKHSLSGRPLKVKEDPDGEHARRAMQKVMATTGGMGMGPGGPGMITIPPSILNNPNIPNEIIHALQAGRLGSTVFVANLDYKVGWKKLKEVFSMAGVVVRADILEDKDGKSRGIGTVTFEQSIEAVQAISMFNGQLLFDRPMHVKMDERALPKGDFFPPERPQQLPHGLGGIGMGLGPGGQPIDANHLNKGIGMGNIGPAGMGMEGIGFGINKMGGMEGPFGGGMENMGRFGSGMNMGRINEILSNALKRGEIIAKQGGGGGGGSVPGIERMGPGIDRLGGAGMERMGAGLGHGMDRVGSEIERMGLVMDRMGSVERMGSGIERMGPLGLDHMASSIERMGQTMERIGSGVERMGAGMGFGLERMAAPIDRVGQTIERMGSGVERMGPAIERMGLSMERMVPAGMGAGLERMGPVMDRMATGLERMGANNLERMGLERMGANSLERMGLERMGANSLERMGPAMGPALGAGIERMGLAMGGGGGASFDRAIEMERGNFGGSFAGSFGGAGGHAPGVARKACQIFVRNLPFDFTWKMLKDKFNECGHVLYADIKMENGKSKGCGVVKFESPEVAERACRMMNGMKLSGREIDVRIDRNA
For B1, the binding result in test [1], in test [2] and in test [3] was “binds” throughout.

B2: E2F7 (protein, UniProt Q96AV8 1-911)
chain: MEVNCLTLKDLISPRQPRLDFAVEDGENAQKENIFVDRSRMAPKTPIKNEPIDLSKQKKFTPERNPITPVKFVDRQQAEPWTPTANLKMLISAASPDIRDREKKKGLFRPIENKDDAFTDSLQLDVVGDSAVDEFEKQRPSRKQKSLGLLCQKFLARYPSYPLSTEKTTISLDEVAVSLGVERRRIYDIVNVLESLHLVSRVAKNQYGWHGRHSLPKTLRNLQRLGEEQKYEEQMAYLQQKELDLIDYKFGERKKDGDPDSQEQQLLDFSEPDCPSSSANSRKDKSLRIMSQKFVMLFLVSKTKIVTLDVAAKILIEESQDAPDHSKFKTKVRRLYDIANVLTSLALIKKVHVTEERGRKPAFKWIGPVDFSSSDEELVDVSASVLPELKRETYGQIQVCAKQKLARHGSFNTVQASERIQRKVNSEPSSPYREEQGSGGYSLEIGSLAAVYRQKIEDNSQGKAFASKRVVPPSSSLDPVAPFPVLSVDPEYCVNPLAHPVFSVAQTDLQAFSMQNGLNGQVDVSLASAASAVESLKPALLAGQPLVYVPSASLFMLYGSLQEGPASGSGSERDDRSSEAPATVELSSAPSAQKRLCEERKPQEEDEPATKRQSREYEDGPLSLVMPKKPSDSTDLASPKTMGNRASIPLKDIHVNGQLPAAEEISGKATANSLVSSEWGNPSRNTDVEKPSKENESTKEPSLLQYLCVQSPAGLNGFNVLLSGSQTPPTVGPSSGQLPSFSVPCMVLPSPPLGPFPVLYSPAMPGPVSSTLGALPNTGPVNFSLPGLGSIAQLLVGPTAVVNPKSSTLPSADPQLQSQPSLNLSPVMSRSHSVVQQPESPVYVGHPVSVVKLHQSPVPVTPKSIQRTHRETFFKTPGSLGDPVLKRRERNQSRNTSSAQRRLEIPSGGAD
For B2, the binding entry in test [3] is “binds”.

B3: FOXA2 (protein, UniProt Q9Y261 1-457)
chain: MLGAVKMEGHEPSDWSSYYAEPEGYSSVSNMNAGLGMNGMNTYMSMSAAAMGSGSGNMSAGSMNMSSYVGAGMSPSLAGMSPGAGAMAGMGGSAGAAGVAGMGPHLSPSLSPLGGQAAGAMGGLAPYANMNSMSPMYGQAGLSRARDPKTYRRSYTHAKPPYSYISLITMAIQQSPNKMLTLSEIYQWIMDLFPFYRQNQQRWQNSIRHSLSFNDCFLKVPRSPDKPGKGSFWTLHPDSGNMFENGCYLRRQKRFKCEKQLALKEAAGAAGSGKKAAAGAQASQAQLGEAAGPASETPAGTESPHSSASPCQEHKRGGLGELKGTPAAALSPPEPAPSPGQQQQAAAHLLGPPHHPGLPPEAHLKPEHHYAFNHPFSINNLMSSEQQHHHSHHHHQPHKMDLKAYEQVMHYPGYGSPMPGSLAMGPVTNKTGLDASPLAADTSYYQGVYSRPIMNSS
B3: the binding entry in test [3] was “binds”.

B4: MED20 (protein, UniProt Q9H944 1-212)
chain: MGVTCVSQMPVAEGKSVQQTVELLTRKLEMLGAEKQGTFCVDCETYHTAASTLGSQGQTGKLMYVMHNSEYPLSCFALFENGPCLIADTNFDVLMVKLKGFFQSAKASKIETRGTRYQYCDFLVKVGTVTMGPSARGISVEVEYGPCVVASDCWSLLLEFLQSFLGSHTPGAPAVFGNRHDAVYGPADTMVQYMELFNKIRKQQQVPVAGIR
Turning to B4, the binding entry in test [2] is reported as “binds”.
